Measurements published in the supplement of paper PMC7661543.
The effect of the compound repeats well; differences between the knockouts mostly do not.

Test system: MDA-MB-231
Assay: relative cell number vs DMSO control (72 h) (% of DMSO); higher = less growth inhibition (more cells)
Procedure: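 QMAP-Seq: a pool of 5 breast cancer cell lines (ZR-75-1, SKBR3, HCC-38, MDA-MB-231, BT-20), each carrying 12 doxycycline-inducible Cas9 sgRNA perturbations (11 knockouts plus non-targeting sgNT), was treated with compounds for 72 h at four 10-fold doses (10 nM-10 uM or 1 nM-1 uM range). Barcodes were amplified and sequenced, and cell number was interpolated from 293T spike-in standard curves. The result is expressed as % of the median of DMSO wells. Two biological replicates.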

CC[C@]1(O)C[C@H]2CN(CCc3c([nH]c4ccccc34)[C@@](C(=O)OC)(c3cc4c(cc3OC)N(C=O)[C@H]3[C@@](O)(C(=O)OC)[C@H](OC(C)=O)[C@]5(CC)C=CCN6CC[C@]43[C@@H]65)C2)C1 [Vincristine]
Settings | relative cell number
sgRNA knockout: sgATF3, 10 nM | 28.8
sgRNA knockout: sgATF3, 100 nM | 19.3
sgRNA knockout: sgATF3, 1000 nM | 16
sgRNA knockout: sgATF3, 10000 nM | 17.1
sgRNA knockout: sgATF4, 10 nM | 32.6
sgRNA knockout: sgATF4, 100 nM | 14.1
sgRNA knockout: sgATF4, 1000 nM | 13.2
sgRNA knockout: sgATF4, 10000 nM | 14.5
sgRNA knockout: sgATF6, 10 nM | 41.9
sgRNA knockout: sgATF6, 100 nM | 17.9
sgRNA knockout: sgATF6, 1000 nM | 17.7
sgRNA knockout: sgATF6, 10000 nM | 11.5
sgRNA knockout: sgATG7, 10 nM | 28.5
sgRNA knockout: sgATG7, 100 nM | 22.6
sgRNA knockout: sgATG7, 1000 nM | 16.6
sgRNA knockout: sgATG7, 10000 nM | 14.3
sgRNA knockout: sgERN1, 10 nM | 35.524
sgRNA knockout: sgERN1, 100 nM | 17
sgRNA knockout: sgERN1, 1000 nM | 17.5
sgRNA knockout: sgERN1, 10000 nM | 19.1
sgRNA knockout: sgHSF1, 10 nM | 28.9
sgRNA knockout: sgHSF1, 100 nM | 20.9
sgRNA knockout: sgHSF1, 1000 nM | 21.3
sgRNA knockout: sgHSF1, 10000 nM | 15.8
sgRNA knockout: sgHSF2, 10 nM | 33.7
sgRNA knockout: sgHSF2, 100 nM | 17.1
sgRNA knockout: sgHSF2, 1000 nM | 16.6
sgRNA knockout: sgHSF2, 10000 nM | 17.3
sgRNA knockout: sgKEAP1, 10 nM | 30.5
sgRNA knockout: sgKEAP1, 100 nM | 16.2
sgRNA knockout: sgKEAP1, 1000 nM | 9.05
sgRNA knockout: sgKEAP1, 10000 nM | 15.4
sgRNA knockout: sgNFE2L2, 10 nM | 30.2
sgRNA knockout: sgNFE2L2, 100 nM | 19.74
sgRNA knockout: sgNFE2L2, 1000 nM | 11.6
sgRNA knockout: sgNFE2L2, 10000 nM | 13.2
sgRNA knockout: sgSLC35F2, 10 nM | 30
sgRNA knockout: sgSLC35F2, 100 nM | 16.1
sgRNA knockout: sgSLC35F2, 1000 nM | 13.1
sgRNA knockout: sgSLC35F2, 10000 nM | 15
sgRNA knockout: sgXBP1, 10 nM | 37.5
sgRNA knockout: sgXBP1, 100 nM | 24
sgRNA knockout: sgXBP1, 1000 nM | 21.5
sgRNA knockout: sgXBP1, 10000 nM | 19.6
